{"sequences": {"note": "Protein sequences, listed by entry. Tags and fused reporters are not part of them. Lines headed by an entry give the natural chain unless they say otherwise; changes in a name come on top.", "UniProt P78527, whole entry": "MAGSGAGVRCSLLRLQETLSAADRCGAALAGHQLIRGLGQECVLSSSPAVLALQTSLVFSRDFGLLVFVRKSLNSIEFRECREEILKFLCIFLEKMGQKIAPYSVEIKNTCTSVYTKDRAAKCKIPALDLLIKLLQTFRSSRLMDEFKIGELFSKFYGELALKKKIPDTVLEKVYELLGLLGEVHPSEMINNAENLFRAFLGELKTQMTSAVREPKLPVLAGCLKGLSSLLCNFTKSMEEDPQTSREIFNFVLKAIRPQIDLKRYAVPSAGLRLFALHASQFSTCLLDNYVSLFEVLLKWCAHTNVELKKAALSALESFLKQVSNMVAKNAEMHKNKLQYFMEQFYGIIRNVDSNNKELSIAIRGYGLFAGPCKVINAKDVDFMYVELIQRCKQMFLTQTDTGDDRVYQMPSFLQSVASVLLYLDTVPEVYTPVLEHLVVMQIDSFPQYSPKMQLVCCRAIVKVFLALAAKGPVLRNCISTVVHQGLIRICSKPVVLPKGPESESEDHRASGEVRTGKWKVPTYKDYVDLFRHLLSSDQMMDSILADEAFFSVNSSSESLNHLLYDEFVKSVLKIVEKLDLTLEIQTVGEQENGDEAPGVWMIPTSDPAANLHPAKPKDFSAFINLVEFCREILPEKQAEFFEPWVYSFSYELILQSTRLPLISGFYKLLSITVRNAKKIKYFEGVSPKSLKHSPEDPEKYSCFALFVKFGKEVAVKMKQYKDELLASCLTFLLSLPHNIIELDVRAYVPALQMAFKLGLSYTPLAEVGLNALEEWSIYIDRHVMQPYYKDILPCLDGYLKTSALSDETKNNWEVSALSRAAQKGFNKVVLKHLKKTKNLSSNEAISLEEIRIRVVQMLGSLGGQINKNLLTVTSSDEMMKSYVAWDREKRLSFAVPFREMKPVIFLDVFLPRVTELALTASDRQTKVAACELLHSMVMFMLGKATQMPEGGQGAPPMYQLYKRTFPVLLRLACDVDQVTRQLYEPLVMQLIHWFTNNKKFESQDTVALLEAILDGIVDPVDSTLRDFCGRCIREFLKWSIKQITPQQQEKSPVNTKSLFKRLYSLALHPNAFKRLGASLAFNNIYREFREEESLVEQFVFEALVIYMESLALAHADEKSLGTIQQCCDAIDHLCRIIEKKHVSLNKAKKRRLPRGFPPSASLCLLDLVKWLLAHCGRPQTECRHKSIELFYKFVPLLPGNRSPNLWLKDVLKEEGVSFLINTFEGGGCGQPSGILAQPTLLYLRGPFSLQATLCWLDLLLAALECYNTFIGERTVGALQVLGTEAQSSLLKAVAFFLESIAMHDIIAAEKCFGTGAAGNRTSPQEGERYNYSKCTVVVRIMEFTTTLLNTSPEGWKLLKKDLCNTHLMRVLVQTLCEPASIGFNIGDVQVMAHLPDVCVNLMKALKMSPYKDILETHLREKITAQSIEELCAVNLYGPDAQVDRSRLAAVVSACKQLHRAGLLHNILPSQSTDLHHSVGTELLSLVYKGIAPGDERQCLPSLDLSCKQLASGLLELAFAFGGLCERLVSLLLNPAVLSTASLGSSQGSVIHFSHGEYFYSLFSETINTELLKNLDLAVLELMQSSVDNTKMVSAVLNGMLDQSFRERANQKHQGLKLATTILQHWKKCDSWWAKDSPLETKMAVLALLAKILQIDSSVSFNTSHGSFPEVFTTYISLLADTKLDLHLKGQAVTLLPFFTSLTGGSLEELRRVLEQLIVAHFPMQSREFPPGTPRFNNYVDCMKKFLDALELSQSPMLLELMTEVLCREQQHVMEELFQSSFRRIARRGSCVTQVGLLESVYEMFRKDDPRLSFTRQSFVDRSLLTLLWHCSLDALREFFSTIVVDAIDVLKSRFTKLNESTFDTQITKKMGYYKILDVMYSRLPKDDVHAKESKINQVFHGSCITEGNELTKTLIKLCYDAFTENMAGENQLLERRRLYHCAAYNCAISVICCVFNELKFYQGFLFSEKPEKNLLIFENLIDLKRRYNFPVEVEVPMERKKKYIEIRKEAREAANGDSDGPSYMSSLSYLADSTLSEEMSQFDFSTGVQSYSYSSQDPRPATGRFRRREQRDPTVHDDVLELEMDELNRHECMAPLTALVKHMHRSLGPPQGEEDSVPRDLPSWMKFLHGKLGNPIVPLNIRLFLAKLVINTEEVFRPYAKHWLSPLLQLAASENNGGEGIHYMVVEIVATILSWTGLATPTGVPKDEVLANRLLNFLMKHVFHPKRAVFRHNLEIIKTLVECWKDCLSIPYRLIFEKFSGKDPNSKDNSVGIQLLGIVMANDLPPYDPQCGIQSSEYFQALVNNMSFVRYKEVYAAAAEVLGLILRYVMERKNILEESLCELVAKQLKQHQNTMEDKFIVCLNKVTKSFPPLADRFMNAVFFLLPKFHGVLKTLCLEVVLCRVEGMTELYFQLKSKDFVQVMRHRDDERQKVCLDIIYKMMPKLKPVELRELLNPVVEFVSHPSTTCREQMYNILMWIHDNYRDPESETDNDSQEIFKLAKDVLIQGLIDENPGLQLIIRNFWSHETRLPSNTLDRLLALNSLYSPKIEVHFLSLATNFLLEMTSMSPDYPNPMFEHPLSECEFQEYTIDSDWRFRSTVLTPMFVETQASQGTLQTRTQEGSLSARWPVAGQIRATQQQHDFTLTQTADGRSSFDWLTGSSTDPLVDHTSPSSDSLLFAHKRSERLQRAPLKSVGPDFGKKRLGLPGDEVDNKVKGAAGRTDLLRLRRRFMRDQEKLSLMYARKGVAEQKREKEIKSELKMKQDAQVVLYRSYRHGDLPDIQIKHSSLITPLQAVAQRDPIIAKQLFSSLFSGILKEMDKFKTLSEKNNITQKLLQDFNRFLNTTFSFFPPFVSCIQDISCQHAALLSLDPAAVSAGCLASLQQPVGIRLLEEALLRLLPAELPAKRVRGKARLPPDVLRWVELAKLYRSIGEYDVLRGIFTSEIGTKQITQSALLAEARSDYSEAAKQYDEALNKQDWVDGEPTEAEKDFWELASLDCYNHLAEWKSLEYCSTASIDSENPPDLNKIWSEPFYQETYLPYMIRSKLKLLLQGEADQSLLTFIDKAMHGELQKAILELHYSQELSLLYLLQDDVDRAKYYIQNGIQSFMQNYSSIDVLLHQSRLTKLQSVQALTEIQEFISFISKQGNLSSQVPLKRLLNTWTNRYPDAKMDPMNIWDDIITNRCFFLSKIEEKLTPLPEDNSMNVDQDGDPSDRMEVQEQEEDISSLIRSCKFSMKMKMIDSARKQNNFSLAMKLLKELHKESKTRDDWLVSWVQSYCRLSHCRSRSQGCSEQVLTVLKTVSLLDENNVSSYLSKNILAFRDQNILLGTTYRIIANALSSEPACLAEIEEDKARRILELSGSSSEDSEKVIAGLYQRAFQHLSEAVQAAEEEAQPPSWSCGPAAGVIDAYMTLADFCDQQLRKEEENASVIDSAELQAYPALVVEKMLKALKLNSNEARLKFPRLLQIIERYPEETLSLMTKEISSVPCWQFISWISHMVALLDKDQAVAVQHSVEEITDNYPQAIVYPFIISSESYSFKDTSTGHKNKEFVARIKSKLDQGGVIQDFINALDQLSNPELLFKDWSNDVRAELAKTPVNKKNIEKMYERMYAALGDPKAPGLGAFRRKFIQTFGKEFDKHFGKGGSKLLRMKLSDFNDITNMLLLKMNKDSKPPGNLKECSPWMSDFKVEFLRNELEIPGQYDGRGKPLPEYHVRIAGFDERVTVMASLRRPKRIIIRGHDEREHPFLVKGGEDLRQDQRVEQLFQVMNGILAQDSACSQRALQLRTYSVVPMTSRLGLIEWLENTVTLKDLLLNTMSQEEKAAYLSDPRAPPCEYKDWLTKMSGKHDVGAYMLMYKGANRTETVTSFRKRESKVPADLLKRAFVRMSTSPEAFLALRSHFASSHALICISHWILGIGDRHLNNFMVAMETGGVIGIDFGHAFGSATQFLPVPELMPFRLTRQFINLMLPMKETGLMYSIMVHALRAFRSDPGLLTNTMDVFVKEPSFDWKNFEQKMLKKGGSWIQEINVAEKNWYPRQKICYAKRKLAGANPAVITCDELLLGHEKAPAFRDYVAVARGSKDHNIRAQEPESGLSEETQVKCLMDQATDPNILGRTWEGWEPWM", "UniProt P12956": "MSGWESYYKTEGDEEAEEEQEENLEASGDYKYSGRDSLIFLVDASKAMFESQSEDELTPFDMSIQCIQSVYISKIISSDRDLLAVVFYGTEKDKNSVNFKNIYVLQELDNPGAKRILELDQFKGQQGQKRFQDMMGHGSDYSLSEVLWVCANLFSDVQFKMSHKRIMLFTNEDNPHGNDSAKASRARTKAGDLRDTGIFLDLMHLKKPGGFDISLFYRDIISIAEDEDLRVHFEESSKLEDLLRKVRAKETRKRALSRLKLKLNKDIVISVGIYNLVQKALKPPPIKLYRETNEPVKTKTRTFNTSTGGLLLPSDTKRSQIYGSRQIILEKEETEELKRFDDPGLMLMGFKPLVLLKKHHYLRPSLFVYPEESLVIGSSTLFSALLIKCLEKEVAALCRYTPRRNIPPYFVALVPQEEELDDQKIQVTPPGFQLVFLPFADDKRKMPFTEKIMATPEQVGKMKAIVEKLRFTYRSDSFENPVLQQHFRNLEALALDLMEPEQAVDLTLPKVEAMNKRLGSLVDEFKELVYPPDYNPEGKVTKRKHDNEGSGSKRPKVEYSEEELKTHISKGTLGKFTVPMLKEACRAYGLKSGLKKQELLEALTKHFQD"}, "source": "paper PMC3789764", "key": {"DNA-PKcs (endogenous)": {"target": "DNA-PKcs (endogenous) (UniProt P78527)", "assay": "pull-down, immunoblot", "conditions": "DNA transfected into cells, empty vector, likely via Ku; protein in an extract; label: 3' biotin"}, "Ku70 (endogenous)": {"target": "Ku70 (endogenous) (UniProt P12956)", "assay": "pull-down, immunoblot", "conditions": "DNA transfected into cells, empty vector; protein in an extract; label: 3' biotin"}}, "note": "Construct, isoform or probe ends are uncertain for at least one entry. Results from cells or extracts need not show a direct contact.", "data": [{"sequence": "TACAGATCTACTAGTGATCTATGACTGATCTGTACATGATCTACA (double strand) [biotinylated ISD DNA]", "values": [{"measurement": "binding result", "setting": "DNA-PKcs (endogenous)", "result": "binds"}, {"measurement": "binding result", "setting": "Ku70 (endogenous)", "result": "binds"}]}]}
